Results taken from patent US12624027B2, “Salts and polymorphic forms of 6-chloro-7-(4-(4-chlorobenzyl)piperazin-1-yl)-2-(1,3-dimethyl-1H-pyrazol-4-yl)-3H-imidazo[4,5-b]pyridine” (ELLIPSES PHARMA LTD, priority 2020, dated 2026).
Some entries share one result that the patent states for a list of compounds.

Assay: Thermodynamic solubility assessment in biological media (FaSSIF, FeSSIF, FaSSGF), HPLC of mother liquors
Assay type: physicochemical
Procedure: The thermodynamic solubility of Compound A free base, Compound A fumarate Form 1 and Compound A hemi-fumarate Form 3 was assessed in 3 biological media: Fasted State Simulated Intestinal Fluid (FaSSIF); Fed State Simulated Intestinal Fluid (FeSSIF) and Fasted State Simulated Gastric Fluid (FaSSGF).
The following procedure was carried out. Approximately 10 mg of material was weighed into 3×1.5 mL glass vials. 0.02 mL aliquots of appropriate buffer were added to each vial until a final concentration of 10 mg/mL was obtained. The samples were then filtered via centrifugation and the mother liquors analyzed by HPLC.

Compound | Concentration (thermodynamic solubility) (FaSSIF pH 6.5, listed as Compound A free base) [µg/mL] | Concentration (thermodynamic solubility) (FeSSIF pH 5.0, listed as Compound A free base) [µg/mL] | Concentration (thermodynamic solubility) (FeSSIF pH 5.0, listed as Compound A fumarate form 3) [µg/mL]
Cc1nn(C)cc1-c1nc2c(N3CCN(Cc4ccc(Cl)cc4)CC3)c(Cl)cnc2[nH]1 [Compound A, 6-chloro-7-(4-(4-chlorobenzyl)piperazin-1-yl)-2-(1,3-dimethyl-1H-pyrazol-4-yl)-3H-imidazo[4,5-b]pyridine] | < 100 | < 100 | –
Cc1nn(C)cc1-c1nc2c(N3CCN(Cc4ccc(Cl)cc4)CC3)c(Cl)cnc2[nH]1 [Form 3, 6-chloro-7-(4-(4-chlorobenzyl)piperazin-1-yl)-2-(1,3-dimethyl-1H-pyrazol-4-yl)-3H-imidazo[4,5-b]pyridine] | – | – | < 100
